# Primary screen of a compound library

Results are given as percent effect.
The record does not define 0% and 100%; most values in the screen are far below 50% and negative numbers occur (in some assays of this library far below -100).
The compounds are a random part of those screened.

A: 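Whole-cell assay for inhibitors of Mycobacterium tuberculosis growth, labelled Cornell in the record; the read-out is not stated. The concentration is filed as 10 mM, unlikely as a test dose, so the dose is not known. The record gives no direction; compounds strong in two other growth screens of this library score well above the rest, so higher reads as stronger inhibition. Size under these conditions: about 53,000 compounds, about 900 of them at 50% or above in at least one test.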
B: 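Assay on Mycobacterium tuberculosis, filed only as a heat shock assay from Cornell; the read-out is not stated. The concentration is filed as 10 mM, unlikely as a test dose, so the dose is not known. The record gives no direction; compounds that gave an IC50 in retests scored well above the rest, so higher reads as stronger inhibition. About 69,000 compounds were tested under these conditions; 1.4% (about 930) showed 50% or more at least once.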

structure: O=c1n(Cc2ncccn2)nc(C2CCNCC2)n1-c1ccccc1
A: 16.65%
B: 19.71%

structure: CCNC(=O)Nc1c(C)cnn1Cc1cc(F)ccc1F
A: -10.04%
B: 14.02%

structure: CC(C)c1noc(C(C)N2CCC(c3nc4ccccc4o3)CC2)n1 (centres unmarked)
A: 24.41%
B: -11.86%

structure: CN(C)CCN1C(=O)CCCC12CCCN(C(=O)c1ccncc1)C2.O=C(O)C(F)(F)F.O=C(O)C(F)(F)F (centres unmarked)
A: 9.04%
B: 7.173%

structure: COc1ccccc1C(C)N1CCN(S(=O)(=O)N(C)C)CC1 (centres unmarked)
A: -10.13%
B: -5.581%

structure: CN(C)CCN1CCN(C)C2(CCN(c3nccs3)CC2)C1=O
A: -3.33%
B: -42.09%

structure: CC(C)CN1CCCC1c1ccc(C(=O)Nc2cccnc2)s1 (centres unmarked)
B: 27.34%

structure: Cc1ccsc1CN(c1nc(CCN)nc2ccccc12)C1CC1
A: 64.64%
B: 91.12%

structure: Cc1cnc(-c2nc(C3CCCN(Cc4cccs4)C3)no2)cn1 (centres unmarked)
A: -30.59%
B: -14.49%

structure: O=C1COc2ccc(C(=O)NS(=O)(=O)c3ccc(F)cc3F)cc2N1
A: 18.22%
B: 9.663%

structure: Clc1cc(CN2CCCCC2Cn2cncn2)c2ncccc2c1 (centres unmarked)
B: 4.625%

structure: CCN(CC)CCCC(C)NC(=O)c1cccnc1-n1cccn1 (centres unmarked)
B: 8.382%

structure: Cc1nn(C)c(C)c1C(=O)N1CCOCC1CC(=O)c1ccco1 (centres unmarked)
A: -1.2%
B: 6.491%

structure: N#Cc1cccnc1N1CCC(OCCc2ccccc2)CC1
A: 33.41%
B: 10.33%

structure: Cc1cc(CN2CCc3cncnc3C2)on1
A: 5.625%
B: -31.87%

structure: CCc1nccn1-c1cccc(C2CCCN2S(=O)(=O)N(C)C)n1 (centres unmarked)
B: -8.122%

structure: CCN1CCN(Cc2coc(-c3cccc(F)c3)n2)CC1
A: -11.32%
B: -11.54%

structure: Cc1ccc(C)c(OC2CCN(C(=O)c3ccc(C)[nH]c3=O)CC2)c1
B: -0.79%

structure: Cc1cccc2nc(C(=O)N3CCC(Nc4cccnn4)CC3)cn12
B: 9.597%

structure: COc1cccc(OC)c1-c1ccnc2cc(CC(=O)N(C)C)nn12
A: 4.933%
B: 11.9%

structure: CC(C)(C(=O)NCc1ccc(C#N)cc1)n1cc(Br)cn1
A: 6.81%
B: 5.348%

structure: CCOC(=O)N1CCN(C(=O)c2sc(-c3ccncc3)nc2C)CC1
A: -25.89%
B: -15.98%

structure: COc1c(CNC2CCCOc3ccccc32)c(C)nn1C (centres unmarked)
A: 23.54%
B: -2.184%

structure: COC(=O)c1cc(OCC2CCC2)cc(C(=O)NCC(C)(C)O)c1
A: 6.353%
B: -1.08%

structure: NC(=O)CCC1CCCN(c2ncnc3c2Cc2ccccc2OC3)C1 (centres unmarked)
A: 8.783%
B: -16.36%

structure: COc1ccc(NC(=O)c2cnc(N(C)C3CCCCC3)nc2N)cc1
A: 22.48%
B: 14.72%

structure: COCC(=O)N(CCC(=O)OC)CC1CCCO1 (centres unmarked)
A: -50.57%
B: -4.404%

structure: [H][C@@]12CCN(S(=O)(=O)CC)[C@]1([H])CC[C@H](c1nnc(C)o1)O2
A: 21.15%
B: -7.854%

structure: CC(=O)NC1CCCN(C(=O)c2ccc(Br)cc2O)C1 (centres unmarked)
A: 18.09%
B: 18.9%

structure: CCCC(C)C(=O)NCc1cn2cc(Br)ccc2n1 (centres unmarked)
A: 17.19%
B: -8.939%

Once more, the final 4:

structure	A	B
COCC(=O)N(CCC(=O)OC)CC1CCCO1 (centres unmarked)	-50.57%	-4.404%
[H][C@@]12CCN(S(=O)(=O)CC)[C@]1([H])CC[C@H](c1nnc(C)o1)O2	21.15%	-7.854%
CC(=O)NC1CCCN(C(=O)c2ccc(Br)cc2O)C1 (centres unmarked)	18.09%	18.9%
CCCC(C)C(=O)NCc1cn2cc(Br)ccc2n1 (centres unmarked)	17.19%	-8.939%

The values are deposited in ChEMBL (CHEMBL3988442, “University of Dundee, Small-Polar-MMV Screening Library” (2021)).